# Results taken from ChEMBL document CHEMBL1131230 (J Med Chem, 1998).
# Biological target: GABA-A receptor; anion channel
# Experiment: Inhibition of [35S]TBPS binding to GABA-A receptor in rat cerebral cortex.
# Assay type: tissue-based
# Method in brief: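 Unwashed cortical membranes from male Sprague-Dawley rats (180-200 g), homogenized in 50 mM Tris-citrate pH 7.4 with […], centrifuged at 20000g and resuspended in buffer. Final 1 nM [35S]TBPS with 0.20-0.25 mg protein and NaCl, 90 min at 25 °C, then GF/B filtration and scintillation counting. Nonspecific binding defined with 100 µM picrotoxin.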
smiles,measurement,value
CC(=O)[C@H]1CC[C@H]2[C@@H]3CC[C@H]4C[C@H](O)CC[C@]4(C)[C@H]3C(=O)C[C@]12C [ALFAXALONE],IC50,0.3 µM
